At least one read-out could not be matched to a standard name with certainty.
System: Agrobacterium tumefaciens AS
Test: Anthranilate synthase enzyme assay and kinetic analysis of purified enzymes
Format: biochemical
Method: Agrobacterium tumefaciens AS wild type and mutant enzymes were expressed in E. coli as described in Example 1. The purification of all the Agrobacterium tumefaciens AS enzymes, including wild type and mutants therof, was performed at 4° C. The cells (approximate wet weight of 1 g) were suspended in 20 ml of purification buffer (50 mM potassium phosphate, pH […], 10 mM 2-mercaptoethanol, 10% glycerol) and lysed by ultrasonication (Branson sonifier Cell Disruptor, W185). Supernatant was collected after centrifugation of the homogenate at 20,000× g for 15 min. The supernatant was subjected to ammonium sulfate fractionation (30 to 65% saturation). […] Fractions containing the enzyme were detected by the developed assay and pooled. […]
The standard assay for Agrobacterium tumefaciens AS was performed at 25° C. in an assay buffer containing 100 mM potassium phosphate, pH 7.0, 1 0 mM MgCl2, 1 mM dithiothreitol, 200 μM chorismate and 10 mM L-glutamine. […] The formation of anthranilate was directly monitored by the absorbance increase at […] for 3 min. Initial rate of reaction was calculated as unit absorbance increase per second based on the slope of the absorbance change over the reaction time. […] Kinetic parameters and IC50 of AS were calculated after fitting the data to a non-linear regression program (GraFit).

Molecule | kcat/Km^Cho [M⁻¹ s⁻¹]
F298A (protein) MVTIIQDDGAETYETKGGIQVSRKRRPTDYANAIDNYIEKLDSHRGAVFSSNYEYPGRYTRWDTAIVDPPLGISCFGRKMWIEAYNGRGEVLLDFITEKLKATPDLTLGASSTRRLDLTVNEPDRVFTEEERSKIPTVFTALRAIVDLFYSSADSAIGLFGAFGYDLAFQFDAIKLSLARPEDQRDMVLFLPDEILVVDHYSAKAWIDRYDFEKDGMTTDGKSSDITPDPFKTTDTIPPKGDHRPGEYSELVVKAKESFRRGDLFEVVPGQKFMERCESNPSAISRRLKAINPSPYSAFINLGDQEYLVGASPEMFVRVSGRRIETCPISGTIKRGDDPIADSEQILKLLNSKKDESELTMCSDVDRNDKSRVCEPGSVKVIGRRQIEMYSRLIHTVDHIEGRLRDDMDAFDGFLSHAWAVTVTGAPKLWAMRFIEGHEKSPRAWYGGAIGMVGFNGDMNTGLTLRTIRIKDGIAEVRAGATLLNDSNPQEEEAETELKASAMISAIRDAKGTNSAATKRDAAKVGTGVKILLVDHEDSFVHTLANYFRQTGATVSTVRSPVAADVFDRFQPDLVVLSPGPGSPTDFDCKATIKAARARDLPIFGVCLGLQALAEAYGGELRQLAVPMHGKPSRIRVLEPGLVFSGLGKEVTVGRYHSIFADPATLPRDFIITAESEDGTIMGIEHAKEPVAAVQFHPESIMTLGQDAGMRMIENVVVHLTRKAKTKAA | 50000
F298W (protein) MVTIIQDDGAETYETKGGIQVSRKRRPTDYANAIDNYIEKLDSHRGAVFSSNYEYPGRYTRWDTAIVDPPLGISCFGRKMWIEAYNGRGEVLLDFITEKLKATPDLTLGASSTRRLDLTVNEPDRVFTEEERSKIPTVFTALRAIVDLFYSSADSAIGLFGAFGYDLAFQFDAIKLSLARPEDQRDMVLFLPDEILVVDHYSAKAWIDRYDFEKDGMTTDGKSSDITPDPFKTTDTIPPKGDHRPGEYSELVVKAKESFRRGDLFEVVPGQKFMERCESNPSAISRRLKAINPSPYSWFINLGDQEYLVGASPEMFVRVSGRRIETCPISGTIKRGDDPIADSEQILKLLNSKKDESELTMCSDVDRNDKSRVCEPGSVKVIGRRQIEMYSRLIHTVDHIEGRLRDDMDAFDGFLSHAWAVTVTGAPKLWAMRFIEGHEKSPRAWYGGAIGMVGFNGDMNTGLTLRTIRIKDGIAEVRAGATLLNDSNPQEEEAETELKASAMISAIRDAKGTNSAATKRDAAKVGTGVKILLVDHEDSFVHTLANYFRQTGATVSTVRSPVAADVFDRFQPDLVVLSPGPGSPTDFDCKATIKAARARDLPIFGVCLGLQALAEAYGGELRQLAVPMHGKPSRIRVLEPGLVFSGLGKEVTVGRYHSIFADPATLPRDFIITAESEDGTIMGIEHAKEPVAAVQFHPESIMTLGQDAGMRMIENVVVHLTRKAKTKAA | 24400
